Reference: paper PMC12040169 (PLOS Biology, 2025)
This is one part of the list.

Test system: T1, CTL2-GFP (C. trachomatis L2/434/Bu, GFP-expressing)
T1 construct: L2/434/Bu, GFP-expressing
Design: species or system HeLa; Intracellular C. trachomatis growth in HeLa cells, bulk GFP fluorescence relative to DMSO
Settings: bulk GFP, single well; 28.5 h, 10 µM; inhibitor

Structure (SMILES)	% of control remaining [%]
Cc1cc(Oc2ccc(Cl)cc2Cl)nc(OCC#N)n1 [CBK019232]	122.115
O=c1[nH]ccn1CCNc1ccc(-c2cccc3cccnc23)cn1 [CBK037658]	128.379
c1cncc(-c2cnn(-c3ccc4[nH]ccc4c3)n2)c1 [CBK112820]	149.633
COc1cc(C)nc(OCCNS(=O)(=O)c2cc(C)ccc2C)n1 [CBK058870]	164.581
COc1ccc(C(=O)N2CCC3(CCCN(CC(=O)Nc4ncccn4)C3)C2)cc1OC (centres unmarked) [CBK132860]	87.2873
CC(C)c1ccc(CN2CCCN(c3cc(OCCc4c[nH]c5ccccc45)ncn3)CC2)cc1 [CBK083280T]	100.722
Cc1c(C(=O)N2CCNC(=O)C2(C)C)nnn1Cc1ccc(F)cc1F [CBK305461]	145.767
CC(=O)c1c(CSc2ccccc2)nn2c1CCCC2 [CBK016543]	115.443
CN(C)CCN1CCN(c2nc(-c3ccc4[nH]ccc4c3)cn3ccnc23)CC1 [CBK036587]	173.685
CCCn1cc(CN2C3CCC2CC(O)(c2ccc(F)cc2)C3)cn1 (centres unmarked) [CBK282971]	115.621
COC(=O)c1cc(C#N)c(=O)n(CC(O)COCc2ccco2)c1 (centres unmarked) [CBK305718]	112.589
COc1ccc([C@]23CC[C@H](NC(=O)Nc4ccc(F)cc4F)C[C@H]2N(C)CC3)cc1OC [CBK066917T]	101.692
Nc1nc(CN2CCN(c3ccccc3F)CC2)nc(N2CCCc3ccccc32)n1 [CBK270234]	147.887
N#Cc1ccccc1-c1ccc(CSc2cccc(F)c2)cc1 [CBK002920]	83.1704
c1cc(CCCOc2cncc(N3CCCC3)n2)ccn1 [CBK115760]	149.379
O=C(NCc1nnc(-c2cccs2)o1)C1(c2ccc(F)cc2)CC1 [CBK284638]	160.893
O=C(O)CCC(=O)Nc1ccc(Br)cc1C(=O)c1ccc(Cl)cc1 [CBK262601]	102.979
COc1ccc2[nH]c3c(c2c1)CCN(C(C)=O)C31CCN(CCOc2ccccc2)C1 (centres unmarked) [CBK039626]	126.889
CCN1C(=O)COC[C@@H]1[C@H](O)c1ccc(NC(=O)Cc2ccc(OC)cc2)cc1 [CBK289676]	116.052
CSc1ncc(CNC(=O)C2CCOc3ccccc3C2)n1C (centres unmarked) [CBK307611]	132.571
c1ccc(CCN2CCN(CCC(c3ccccc3)c3ccccc3)CC2)cc1 [CBK126432]	94.6351
CN(C)S(=O)(=O)c1ccc(Cl)c(C(=O)Nc2cccc(C(=O)O)c2)c1 [CBK265727]	198.469
Cc1nn(C)c(C)c1NC(=O)c1ccc(S(=O)(=O)N(C)C)cc1 [CBK266059]	123.585
Oc1cc2nnnn2nc1-c1ccccc1 [CBK019550]	131.417
C/C(=N/OCC(=O)Nc1oc(-c2ccccc2)c(-c2ccccc2)c1C#N)c1cccs1 [CBK262932]	100

Structure (SMILES)	% of control remaining [%]
O=S(=O)(NCc1nc2ccccc2[nH]1)c1ccccc1 [CBK269460]	125.282
O=C(NC[C@H]1O[C@@H](CC(=O)N2CCCC2)[C@H](O)[C@@H]1O)c1cccc(F)c1 [CBK288908]	112.969
C=CCNC(=O)C[C@@H]1CCN(C(=O)c2ccnc(Cl)c2)C[C@@H]1CC [CBK289136]	118.705
Cc1ccc(C(=O)O)cc1NC(=S)NC1CC1 [CBK288397]	149.834
CC(CN(C)C(=O)CC1CCN(C(=O)CC2CCCCC2)CC1)c1ccccc1 (centres unmarked) [CBK286268]	130.541
CCN(CCO)C(=O)C(C)Oc1cc(C)ccc1Cl (centres unmarked) [CBK306019]	90.7525
COc1ccc(C(=O)Nc2nnc(-c3ccccc3OC)o2)cc1OC [CBK287589]	121.283
Cn1nccc1-c1cc(C(=O)NC2(C)CCC2)c2ccccc2n1 [CBK281605]	147.454
O=S(=O)(c1ccc(Br)cc1)N1CCCCC1CO (centres unmarked) [CBK051127]	88.0219
COc1ccc([C@@]23CCC(CC(=O)O)C[C@@H]2N(C)CC3)cc1OC (some centres unmarked) [CBK045765A]	101.063
COc1ccc(-c2cnc(N)c(NCc3cccnc3)n2)c(OC)c1OC [CBK063540]	168.218
O=C(CN1C(=O)c2ccccc2C1=O)Nc1sc2c(c1C(=O)NCC1CCCO1)CCC2 (centres unmarked) [CBK265583]	107.536
O=C(c1cccnc1)N1C[C@@H]2OCC(=O)N(Cc3ccc(F)cc3)[C@@H]2C1 [CBK289691]	160.935
O=C(O)C1CCCN(C(=O)NCC2COc3ccccc3O2)C1 (centres unmarked) [CBK161342]	96.0432
O=C(Cc1ccc(F)cc1)N1CCC(O)(c2ccccn2)CC1 [CBK283588]	146.414
O=C(O)COc1ccc(N2C(=O)c3ccc(-c4nc5ccccc5c(=O)o4)cc3C2=O)cc1 [CBK265659]	90.8182
O=C(NCc1nc2ccccc2[nH]1)c1ccc2[nH]ccc2c1 [CBK149079]	104.793
Cc1ccc(S(=O)(=O)Nc2c(C(=O)O)sc3ncccc23)cc1[N+](=O)[O-] [CBK049983]	114.765
C=CCn1c2ccccc2c2nnc(SCC(=O)N3c4ccccc4Sc4ccccc43)nc21 [CBK263237]	87.4357
CCOC(=O)Cn1nc(C)n2c(cc3sc(C)cc32)c1=O [CBK284096]	132.807
c1ccc2c(c1)nc1n2CN(Cc2ccc3c(c2)OCO3)CN1 [CBK268087]	94.0179
O=C(O)CSc1ncnc2ccccc12 [CBK262069]	100
Nc1ccccc1NC(=O)NC(=O)c1ccccc1 [CBK022767]	127.801
O=C(NCCCc1ccccn1)c1ccnc2ccc(Cl)cc12 [CBK282618]	103.32
OCc1nc2ccccc2n1CCCCOc1ccccc1Cl [CBK270117]	103.34

3 of these compounds, set out differently.
Structure (SMILES) | % of control remaining [%]
CCCn1cc(CN2C3CCC2CC(O)(c2ccc(F)cc2)C3)cn1 (centres unmarked) [CBK282971] | 115.621
COC(=O)c1cc(C#N)c(=O)n(CC(O)COCc2ccco2)c1 (centres unmarked) [CBK305718] | 112.589
COc1ccc([C@]23CC[C@H](NC(=O)Nc4ccc(F)cc4F)C[C@H]2N(C)CC3)cc1OC [CBK066917T] | 101.692
